# Measurements reported in PubChem BioAssay AID1259288 (Sanger Institute, 2017)
# Aim: 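Verify that silencing candidate genes makes colorectal cancer cells more drug sensitive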 (follow-up of hits with single siRNAs)
# Cells: HT29 human colorectal cancer cells
# Reagent: single siRNA against human genes
# Challenge: anchor drugs BYL719 (1 µM), cetuximab (5 µg/ml) or trametinib (10 nM), or DMSO vehicle; each drug dosed to cause only modest loss of viability on its own
# Detection: 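Synergy score comparing combined siRNA and drug against siRNA alone and drug alone, and viability averaged over replicates and normalised to control pool 2 (non-targeting)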
# Direction: synergy score with BYL719 and synergy score with trametinib and synergy score with cetuximab: higher = stronger combined killing than expected from each alone; viability with siRNA alone (DMSO): higher = more viable cells
# Call rule: 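Hit when synergy for any of BYL719, cetuximab and trametinib exceeds 0.10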
# This is a random part of 160 reagents. 7 of all reagents (4.4%) count as active. 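Active calls arise only from BYL719 or trametinib; no cetuximab synergy went beyond 0.10; drug doses chosen to have mild effect alone.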 No viability above 1 is reported: the scale is capped. Not given: the amount of reagent, the time to read-out.
gene symbol,PubChem SID,synergy score with BYL719,synergy score with trametinib,synergy score with cetuximab,viability with siRNA alone (DMSO) (fraction of control),outcome
GTF2H1 (general transcription factor IIH subunit 1),SID56478227,-0.123,-0.0191,0.0465,0.899,inactive
GTF2H1 (general transcription factor IIH subunit 1),SID56478228,-0.289,-0.0382,0,1,inactive
GTF2H1 (general transcription factor IIH subunit 1),SID56478229,-0.175,-0.0697,-0.00343,0.986,inactive
GTF2H1 (general transcription factor IIH subunit 1),SID56478230,-0.0562,-0.042,-0.0557,0.656,inactive
PINK1 (PTEN induced kinase 1),SID56476283,-0.2,-0.0595,-0.158,0.721,inactive
PINK1 (PTEN induced kinase 1),SID56476284,-0.0681,0.0192,-0.0555,0.807,inactive
PINK1 (PTEN induced kinase 1),SID56476285,-0.0476,-0.0496,-0.203,0.59,inactive
PINK1 (PTEN induced kinase 1),SID56476286,-0.0617,0.0696,0.0728,1,inactive
SYK (spleen associated tyrosine kinase),SID56475471,-0.0415,-0.0231,-0.162,0.654,inactive
SYK (spleen associated tyrosine kinase),SID56475472,-0.119,0.0848,-0.268,0.655,inactive
SYK (spleen associated tyrosine kinase),SID56475473,-0.207,-0.0153,-0.318,0.403,inactive
SYK (spleen associated tyrosine kinase),SID56475474,-0.21,-0.0368,-0.165,0.835,inactive
NR2F2 (nuclear receptor subfamily 2 group F member 2),SID134229233,-0.189,-0.042,-0.214,0.714,inactive
NR2F2 (nuclear receptor subfamily 2 group F member 2),SID134229234,-0.223,-0.0522,-0.184,0.67,inactive
NR2F2 (nuclear receptor subfamily 2 group F member 2),SID134229235,-0.188,-0.0801,0.0469,1,inactive
NR2F2 (nuclear receptor subfamily 2 group F member 2),SID134229236,-0.0519,-0.0275,-0.0365,0.781,inactive
PLK1 (polo like kinase 1),SID56475783,-0.16,-0.0478,-0.0381,0.313,inactive
PLK1 (polo like kinase 1),SID56475784,-0.188,-0.0869,-0.0812,0.274,inactive
PLK1 (polo like kinase 1),SID56475785,-0.0904,-0.056,-0.0595,0.262,inactive
PLK1 (polo like kinase 1),SID56475786,-0.116,-0.0801,-0.135,0.282,inactive
COASY (Coenzyme A synthase),SID56477723,-0.0452,-0.0112,-0.185,0.65,inactive
COASY (Coenzyme A synthase),SID56477724,-0.0074,-0.0201,-0.0554,0.732,inactive
COASY (Coenzyme A synthase),SID56477725,-0.0779,0.0119,-0.0552,0.665,inactive
COASY (Coenzyme A synthase),SID56477726,0.0415,0.0206,0.0404,0.54,inactive
IRAK1 (interleukin 1 receptor associated kinase 1),SID56476703,-0.05,-0.0296,-0.0897,0.58,inactive
IRAK1 (interleukin 1 receptor associated kinase 1),SID56476704,-0.00564,0.00166,0,1,inactive
IRAK1 (interleukin 1 receptor associated kinase 1),SID56476705,0.121,-0.0115,0.0039,0.858,active
IRAK1 (interleukin 1 receptor associated kinase 1),SID56476706,0.0249,-0.00933,0.0984,0.965,inactive
SF3B1 (splicing factor 3b subunit 1),SID152148776,-0.0319,-0.0456,0.0309,0.436,inactive
SF3B1 (splicing factor 3b subunit 1),SID152150545,-0.0341,-0.0578,-0.0701,0.393,inactive
SF3B1 (splicing factor 3b subunit 1),SID152153930,0.0132,-0.0211,-0.000732,0.451,inactive
SF3B1 (splicing factor 3b subunit 1),SID152156441,-0.118,-0.118,-0.127,0.266,inactive
MPP3 (MAGUK p55 scaffold protein 3),SID56478207,-0.225,-0.0435,-0.125,0.82,inactive
MPP3 (MAGUK p55 scaffold protein 3),SID56478208,-0.107,0.00599,-0.155,0.845,inactive
MPP3 (MAGUK p55 scaffold protein 3),SID56478209,-0.187,0.101,-0.135,0.749,active
MPP3 (MAGUK p55 scaffold protein 3),SID56478210,-0.0992,0.0439,-0.0199,0.593,inactive
PAK1 (p21 (RAC1) activated kinase 1),SID56475940,-0.0815,0.0254,-0.153,0.842,inactive
PAK1 (p21 (RAC1) activated kinase 1),SID56475941,-0.209,0.00917,-0.206,0.667,inactive
PAK1 (p21 (RAC1) activated kinase 1),SID56475942,-0.0219,0.0266,-0.108,0.786,inactive
PAK1 (p21 (RAC1) activated kinase 1),SID135611339,-0.23,-0.0389,-0.171,0.829,inactive
